PubChem BioAssay AID504774 | Drosophila RNAi Screening Center, 2011
The screen tested about 23,000 reagents; below is an unselected part of those with a known target gene and a result. 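Values are quantile-normalised luminescence on an arbitrary scale; higher means more cells surviving MMS.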 The numbers tell different reagents against one gene apart. Names joined by + are all predicted targets of the reagent. No sequences are given here.

Aim: 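Genes required for cells to withstand methyl methanesulphonate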 (primary screen)
Cells: Drosophila Kc167 cells
Reagents: long dsRNA against Drosophila genes, about 0.25 µg dsRNA per well
Timing: about 6 days: 3 days knock-down, then 3 days with or without MMS
Conditions: methyl methanesulphonate 0.004% (w/v) for 3 days after knock-down
Measured: 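Viability in wells given MMS, read as ATP luminescence, normalised by quantiles plate by plate and averaged across replicates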
Reading the numbers: mean viability with MMS and viability with MMS: higher = more surviving cells after MMS

mean viability with MMS,"viability with MMS, replicate 1","viability with MMS, replicate 2",target,reagent
3.62e6,4.05e6,4.12e6,CG33784,1
3.53e6,3.99e6,4.01e6,Tasp1,1
3.48e6,3.92e6,3.99e6,lectin-24A,1
3.71e6,4.06e6,4.30e6,CG18746,1
3.47e6,3.92e6,3.92e6,CG42729,1
3.40e6,3.88e6,3.82e6,Tmem43,1
3.32e6,3.87e6,3.84e6,CG32074,1
3.21e6,3.65e6,3.68e6,RpS27,1
3.48e6,4.25e6,3.66e6,SCAR,1
3.53e6,4.02e6,3.97e6,Cpr78Cb,1
3.74e6,4.15e6,4.26e6,CG7183,1
3.46e6,3.87e6,3.97e6,CG42323,1
3.60e6,4.15e6,4.01e6,CG42323,2
3.48e6,3.94e6,3.98e6,CG4511,1
3.31e6,3.83e6,3.72e6,CG10725,1
3.22e6,3.71e6,3.71e6,CG15322,1
3.50e6,3.95e6,4.03e6,CG15322,2
3.66e6,4.23e6,4.04e6,CG4301,1
3.10e6,3.68e6,3.65e6,ACC,1
3.48e6,3.95e6,3.91e6,ACC,2
3.52e6,4.00e6,3.98e6,CG43333,1
3.21e6,3.54e6,3.64e6,CG43333,2
3.65e6,4.14e6,4.10e6,CG34247,1
3.66e6,4.16e6,4.17e6,Art3,1
3.32e6,3.78e6,3.88e6,CG32192,1
2.85e6,3.62e6,3.60e6,Rpt3,1
3.43e6,3.89e6,3.84e6,tea,1
3.44e6,3.98e6,3.84e6,tea,2
3.67e6,4.19e6,4.19e6,CG4968,1
3.68e6,4.16e6,4.19e6,CG11808,1
1.73e6,3.99e6,3.81e6,sage,1
3.27e6,3.71e6,3.70e6,nrv2,1
3.41e6,3.80e6,3.83e6,nrv2,2
3.47e6,3.99e6,3.86e6,CG9897 + asRNA:CR42742,1
3.56e6,4.09e6,3.99e6,ACXB,1
3.83e6,4.47e6,4.25e6,Gmd,1

Continued; the last 4 above are carried over.
mean viability with MMS,"viability with MMS, replicate 1","viability with MMS, replicate 2",target,reagent
3.41e6,3.80e6,3.83e6,nrv2,2
3.47e6,3.99e6,3.86e6,CG9897 + asRNA:CR42742,1
3.56e6,4.09e6,3.99e6,ACXB,1
3.83e6,4.47e6,4.25e6,Gmd,1
3.46e6,3.94e6,3.94e6,CG6225,1
3.44e6,3.98e6,3.83e6,Ugt305A1,1
3.64e6,4.18e6,4.03e6,Oxp,1
3.47e6,3.94e6,3.91e6,capt,1
3.57e6,4.09e6,4.03e6,capt,2
3.84e6,4.21e6,4.40e6,CG32447,1
3.70e6,4.21e6,4.09e6,CG32447,2
3.53e6,4.00e6,4.00e6,CG32071,1
3.44e6,3.81e6,3.94e6,Pex6 + Hao,1
3.43e6,3.80e6,3.99e6,Pex6 + Hao,2
3.44e6,3.96e6,3.78e6,CG15528,1
3.66e6,4.07e6,4.23e6,CG16854,1
3.34e6,3.76e6,3.87e6,CR34254,1
3.43e6,3.99e6,3.82e6,Cyp12a4,1
3.54e6,3.87e6,4.15e6,Pex19,1
3.51e6,3.95e6,4.03e6,CG11378,1
3.48e6,3.83e6,4.07e6,CG31869,1
3.63e6,4.10e6,4.15e6,CG31869,2
3.50e6,4.04e6,3.90e6,CG12863,1
3.63e6,4.17e6,4.02e6,Alg-2,1
3.54e6,4.14e6,3.91e6,betaGlu,1
3.57e6,3.95e6,4.09e6,Stim,1
3.59e6,4.18e6,3.94e6,kipf,1
3.54e6,3.94e6,4.10e6,kipf,2
3.61e6,4.14e6,4.07e6,CG9044,1
3.58e6,4.03e6,4.09e6,cutlet,1
3.66e6,3.90e6,4.45e6,rho-4,1
3.60e6,4.00e6,4.15e6,rho-4,2
3.56e6,4.04e6,4.03e6,CG18528,1
3.49e6,4.07e6,3.90e6,kappaTry,1
3.70e6,4.35e6,4.08e6,CG6180,1
3.69e6,4.13e6,4.22e6,CG34109,1
3.57e6,4.09e6,4.01e6,CG34109,2
3.52e6,3.90e6,4.10e6,CG34109,3
